US20090104633A1, “Kit for Highly Sensitive Detection Assays” (priority 2005, published 2009)
Marks after values point to notes of the source that are not given here.

Key:
[1] = tested on: monoclonal anti-2,4-D antibody clone F6/C10; assay: Detection of active ester-labelled insulin on PVDF filterplates (HRP/TMB); type: binding, mouse; settings: for Detection limit of labelled protein: mean ± SEM; for Detection limit of label: insulin conjugate, converted from pg protein with labelling degree (Table 6)
[2] = tested on: monoclonal anti-2,4-D antibody clone E2/G2; assay: as above; type: binding, mouse; settings: for Detection limit of labelled protein: mean ± SEM; for Detection limit of label: insulin conjugate, converted from pg protein with labelling degree (Table 6)
[3] = tested on: monoclonal anti-2,4-D antibody clone E4/C2; assay: as above; type: binding, mouse; settings: for Detection limit of labelled protein: mean ± SEM; for Detection limit of label: insulin conjugate, converted from pg protein with labelling degree (Table 6)
[4] = tested on: monoclonal anti-2,4-D antibody clone B7; assay: as above; type: binding, mouse; settings: for Detection limit of labelled protein: mean ± SEM; for Detection limit of label: insulin conjugate, converted from pg protein with labelling degree (Table 6)
[5] = tested on: Mouse anti-2,4-D monoclonal antibody clone F6/C10; assay: Dot blot detection of hydrazide-labelled glycoprotein (porcine mucin) on nitrocellulose; type: binding; settings: periodate-oxidized mucin; primary antibody clone F6/C10; AlexaFluor680 secondary antibody; mean ± SEM
[6] = tested on: Mouse anti-2,4-D monoclonal antibody clone B7; assay: as above; type: binding; settings: periodate-oxidized mucin; primary antibody clone B7; AlexaFluor680 secondary antibody; mean ± SEM
[7] = tested on: Mouse anti-2,4-D monoclonal antibody clone E2/G2; assay: as above; type: binding; settings: periodate-oxidized mucin; primary antibody clone E2/G2; AlexaFluor680 secondary antibody; mean ± SEM
[8] = tested on: Mouse anti-2,4-D monoclonal antibody clone E4/C2; assay: as above; type: binding; settings: periodate-oxidized mucin; primary antibody clone E4/C2; AlexaFluor680 secondary antibody; mean ± SEM
[9] = tested on: Mouse anti-2,4-D monoclonal antibody clone F6/C10; assay: Dot blot detection of active ester-labelled ovalbumin on nitrocellulose; type: binding; settings: ovalbumin conjugate; primary antibody clone F6/C10; AlexaFluor680 secondary antibody; mean ± SEM
[10] = tested on: Mouse anti-2,4-D monoclonal antibody clone E2/G2; assay: as above; type: binding; settings: ovalbumin conjugate; primary antibody clone E2/G2; AlexaFluor680 secondary antibody; mean ± SEM
[11] = tested on: Mouse anti-2,4-D monoclonal antibody clone B7; assay: as above; type: binding; settings: ovalbumin conjugate; primary antibody clone B7; AlexaFluor680 secondary antibody; mean ± SEM
[12] = tested on: monoclonal antibody against DIG clone 1.17.256; assay: Detection of active ester-labelled insulin on PVDF filterplates (HRP/TMB); type: binding, mouse; settings: anti-DIG clone 1.17.256
[13] = insulin labelled with oligoethyleneglycol-containing active esters
[14] = insulin conjugate on PVDF, HRP secondary antibody

Q: Which “Detection limit of labelled protein” value [1, 13] does the source give for “6-(2-(2,4-dichlorophenoxy)acetylamido)-PEG11-succinimidylester [(7a)]” here?
A: The value was 6,341.4 ± 3,120.3 pg.

Q: What about the “Detection limit of labelled protein” value [2, 13] of the same compound?
A: The value was 3,906.3 ± 0.3 pg.

Q: And the “Detection limit of labelled protein” value [3, 13]?
A: Its value is 732.9 ± 109.1 pg.

Q: And the “Detection limit of labelled protein” value [4, 13]?
A: Its value is 6,508.8 ± 1,301.2 pg.

Q: Which results are given for `NNC(=O)COc1ccc(Cl)cc1Cl` [(1a), 2-(2,4-dichlorophenoxy)acetic acid-hydrazide]?
A: Detection limit of proteins after labelling with hydrazide derivatives [5]: 114.6 ± 10.4^ pg; Detection limit of proteins after labelling with hydrazide derivatives [6]: 100.4 ± 28.5^(i) pg; Detection limit of proteins after labelling with hydrazide derivatives [7]: 114.6 ± 10.4^ pg; Detection limit of proteins after labelling with hydrazide derivatives [8]: 160.7 ± 23.1^ pg

Q: With `O=C(COc1ccc(Cl)cc1Cl)ON1C(=O)CCC1=O` [(1b)] as the compound, how does the “Detection limit of labelled protein” value [1, 14] read?
A: The value was 180,555.6 ± 21,960.3 pg.

Q: What about the “Detection limit of label” value [1] of the same compound?
A: The value was 16,375.5 ± 1,991.7 fMole.

Q: What about the “Detection limit of proteins after labelling with active ester derivatives” value (“Detection limit … with active ester derivatives” for short) [9] of the same compound?
A: The value was 236.3 ± 62.6 pg.

Q: And the “Detection limit of labelled protein” value [2, 14]?
A: Its value is 197,916.7 ± 42,020.3 pg.

Q: And the “Detection limit of label” value [2]?
A: Its value is 17,950.1 ± 3,811.0 fMole.

Q: And the “Detection limit … with active ester derivatives” value [10]?
A: The value was 161.5 ± 41.3 pg.

Q: And the “Detection limit … with active ester derivatives” value [11]?
A: The value was 323.7 ± 65.7 pg.

Q: What about the “Detection limit of labelled protein” value [3, 14] of the same compound?
A: Its value is 9,114.6 ± 1,210.1 pg.

Q: What about the “Detection limit of label” value [3] of the same compound?
A: The value was 826.7 ± 109.8^(g) fMole.

Q: And the “Detection limit of labelled protein” value [4, 14]?
A: Its value is 173,611.1 ± 25,038.6 pg.

Q: And the “Detection limit of label” value [4]?
A: Its value is 15,745.7 ± 2,270.8 fMole.

Q: Which “Detection limit of labelled protein” value [1, 14] does the source give for `O=C(COc1ccc(Cl)cc1Cl)NCCCCCC(=O)ON1C(=O)CC(S(=O)(=O)[O-])C1=O.[Na+]` (centres unmarked) [(3b), 6-(2-(2,4-dichlorophenoxy)acetylamino)-hexanoic acid-N-hydroxysulfosuccinimidyl-ester-sodium Salt] here?
A: The value was 1,519.1 ± 456.3^(d) pg.

Q: And the “Detection limit of label” value [1]?
A: The value was 426.6 ± 128.1^(d) fMole.

Q: What about the “Detection limit … with active ester derivatives” value [9] of the same compound?
A: Its value is 253.9 ± 60.4 pg.

Q: And the “Detection limit of labelled protein” value [2, 14]?
A: The value was 915.6 ± 61.0^(d) pg.

Q: What about the “Detection limit of label” value [2] of the same compound?
A: Its value is 257.1 ± 17.1^(d) fMole.

Q: What about the “Detection limit … with active ester derivatives” value [10] of the same compound?
A: The value was 388.4 ± 72.1 pg.

Q: And the “Detection limit … with active ester derivatives” value [11]?
A: The value was 352.7 ± 71.8 pg.

Q: And the “Detection limit of labelled protein” value [3, 14]?
A: The value was 42.0 ± 7.5^(d) pg.

Q: And the “Detection limit of label” value [3]?
A: Its value is 11.8 ± 2.1^(d) fMole.

Q: And the “Detection limit of labelled protein” value [4, 14]?
A: The value was 1,464.9 ± 369.1^(d) pg.

Q: What about the “Detection limit of label” value [4] of the same compound?
A: Its value is 411.4 ± 103.7^(d) fMole.

Q: `O=C(COc1ccc(Cl)cc1Cl)NCCCCCCCCCCC(=O)ON1C(=O)CC(S(=O)(=O)[O-])C1=O.[Na+]` (centres unmarked) [(3d), 11-(2-(2,4-dichlorophenoxy)acetylamino)-undecanoic acid-N-hydroxysulfosuccinimidyl-ester-sodium Salt] was tested. Which “Detection limit of labelled protein” value [1, 14] did it give?
A: The value was 133.5 ± 27.0^(f) pg.

Q: What about the “Detection limit of label” value [1] of the same compound?
A: Its value is 8.9 ± 1.8^(f) fMole.

Q: What about the “Detection limit … with active ester derivatives” value [9] of the same compound?
A: Its value is 386.7 ± 110.5^(g) pg.

Q: And the “Detection limit of labelled protein” value [2, 14]?
A: Its value is 160.2 ± 25.6^(f) pg.

Q: And the “Detection limit of label” value [2]?
A: Its value is 10.6 ± 1.7^(f) fMole.

Q: What about the “Detection limit … with active ester derivatives” value [10] of the same compound?
A: The value was 625.0 ± 125.0^(g) pg.

Q: And the “Detection limit … with active ester derivatives” value [11]?
A: Its value is 625.0 ± 178.9^(g) pg.

Q: What about the “Detection limit of labelled protein” value [3, 14] of the same compound?
A: Its value is 10.9 ± 1.6^(f) pg.

Q: What about the “Detection limit of label” value [3] of the same compound?
A: The value was 0.7 ± 0.1^(f) fMole.

Q: What about the “Detection limit of labelled protein” value [4, 14] of the same compound?
A: The value was 113.4 ± 8.7^(f) pg.

Q: And the “Detection limit of label” value [4]?
A: Its value is 7.5 ± 0.6^(f) fMole.

Q: What does the source list for `NNC(=O)CCCCCNC(=O)COc1ccc(Cl)cc1Cl` [(4a), 6-(2-(2,4-dichlorophenoxy)acetylamino)-hexanoic acid-hydrazide]?
A: Detection limit of proteins after labelling with hydrazide derivatives [5]: 2.7 ± 0.4^(h) pg; Detection limit of proteins after labelling with hydrazide derivatives [6]: 10.9 ± 1.8^(h) pg; Detection limit of proteins after labelling with hydrazide derivatives [7]: 24.8 ± 4.4^(e) pg; Detection limit of proteins after labelling with hydrazide derivatives [8]: 25.1 ± 8.0^(e) pg

Q: How did the “Detection limit of proteins after labelling with hydrazide derivatives” value (“Detection limit … with hydrazide derivatives” below) [5] turn out when `NNC(=O)CCCCCCCCCCNC(=O)COc1ccc(Cl)cc1Cl` [(4c), 11-(2-(2,4-dichlorophenoxy)acetylamino)-undecanoic acid-hydrazide] was run?
A: The value was 13.7 ± 1.3^(g) pg.

Q: What about the “Detection limit … with hydrazide derivatives” value [6] of the same compound?
A: The value was 15.6 ± 0.0^(g) pg.

Q: And the “Detection limit … with hydrazide derivatives” value [7]?
A: Its value is 51.9 ± 13.8^(g) pg.

Q: What about the “Detection limit … with hydrazide derivatives” value [8] of the same compound?
A: Its value is 28.7 ± 9.4^(g) pg.

Q: Which results are given for `C[C@]12CC[C@H](OCC(=O)NCCCCCC(=O)ON3C(=O)CCC3=O)C[C@H]1CC[C@@H]1[C@@H]2C[C@@H](O)[C@]2(C)[C@@H](C3=CC(=O)OC3)CC[C@]12O` [DIG-C6-NHS, Digoxigenin-3-O-methylcarbonyl-ε-aminocaproyl-N-hydroxysuccinimide]?
A: Detection limit of labelled protein ([12]; insulin conjugate on PVDF, HRP secondary antibody, mean ± SEM): 21,701.4 ± 3,129.8 pg; Detection limit of label ([12]; insulin conjugate, converted from pg protein with labelling degree (Table 6)): 5,677.5 ± 818.8 fMole

Q: With “(6-(2-(2,4-dichlorophenoxy)acetylamido) undecanoylamido)-PEG11-succinimidylester [(7c)]” as the compound, how does the “Detection limit of labelled protein” value [1, 13] read?
A: The value was 366.1 ± 122.0 pg.

Q: And the “Detection limit of labelled protein” value [2, 13]?
A: Its value is 68.8 ± 53.5^(b) pg.

Q: What about the “Detection limit of labelled protein” value [3, 13] of the same compound?
A: Its value is 45.8 ± 15.3^(b) pg.

Q: What about the “Detection limit of labelled protein” value [4, 13] of the same compound?
A: Its value is 733.2 ± 244.4^(b) pg.

Q: How did the “Detection limit of labelled protein” value [1, 13] turn out when “(6-(2-(2,4-dichlorophenoxy)acetylamido)hexylamido)-PEG11-succinimidylester [(7b)]” was run?
A: The value was 3,905.0 ± 1,381.2 pg.

Q: And the “Detection limit of labelled protein” value [2, 13]?
A: The value was 1,099.7 ± 307.5^(b) pg.

Q: What about the “Detection limit of labelled protein” value [3, 13] of the same compound?
A: Its value is 312.3 ± 58.0^(b) pg.

Q: What about the “Detection limit of labelled protein” value [4, 13] of the same compound?
A: Its value is 2,541.5 ± 586.5^(b) pg.
